At least one compound was matched to its structure with a doubt left.
Tests used:
[1] = test system: LPS-induced lung inflammation; experiment: Mouse model of lung inflammation induced by LPS; assay type: in vivo; conditions: mice; LPS 2 μg/mouse i.t.; i.p. dexamethasone 500 μg/kg, vinpocetine composition 5 mg/kg, alone or combined
[2] = test system: IκBα phosphorylation and degradation; experiment: Western blot of TNFα-induced IκBα phosphorylation and degradation in VSMCs; assay type: cell-based; conditions: rat aortic VSMCs; TNFα 10 ng/ml; vinpocetine 50 μM, nifedipine 30 μM, IC86340 15 μM, EGTA 2 mM, BAPTA/AM 30 μM
Experimental: (§1) Rat aortic VSMCs were treated with TNFα (10 ng/ml) for different time periods (0-30 minutes) as indicated in the presence or absence of vinpocetine ([…]). Western Blotting analysis was carried out to evaluate the levels of phosphorylated IκBα, total IκBα- and β-actin. […] IKK kinase activity was analyzed by an immune complex kinase assay. […] VSMCs were treated with TNFα for 10 min in the presence of various doses of vinpocetine as indicated. FIG. 8D illustrates the relative IKK activity as indicated. Intensities of the GST-IκBα bands in the autoradiogram were measured by densitometric scanning. Results were normalized to the control ([vinpocetine]=0) that is arbitrarily set to 100%. *p<0.05, **p<0.01 vs. vitipocetine at zero. FIGS. 8E-H illustrate the effects of vinpocetine on NF-κB activation induced by expressing constitutive active form of either MEKK1 (CA-MEKK1) (FIG. 8E), IKKα (CA-IKKα) (FIG. 8F), IKKβ (CA-IKKβ) (FIG. 8G), or WT p65 (FIG. 8H) in VSMCs.
Rat aortic VSMCs were treated with TNFα (10 ng/ml) for 10 minutes in the presence of either 50 μM vinpocetine, 30 μM nifedipine (Ca^2+ channel blocker), 15 μM IC86340 (PDE1 inhibitor), 2 mM EGTA (extracellular Ca^2+ chelator), or 30 μM BAPTA/AM (intracellular Ca^2+ chelator). […] Western Blotting analysis was carried out to evaluate the levels of phosphorylated IκBα total IκBα and β-actin. […]

IKK = IKK immune complex kinase assay from TNFα-treated VSMCs; assay type: cell-based, rat
Experimental: as §1, with “FIGS. 8E-H illustrate the effects of vinpocetine on NF-κB activation induced by expressing constitutive active form of either MEKK1 (CA-MEKK1) (FIG. 8E), IKKα (CA-IKKα) (FIG. 8F), IKKβ (CA-IKKβ) (FIG. 8G), or WT p65 (FIG. 8H) in VSMCs.” left out
Cell lysates were prepared as described above. […] Phosphorylation of GST-IκBα was quantified in NIH Image 1.60.
Because IKK is known as the major upstream kinase for IκBα phosphorylation and degradation, whether vinpocetine inhibits IκB phosphorylation and degradation via inhibition of IKK was determined. […] The crude cell lysates from treated VSMCs were first immunoprecipitated with an anti-IKKα antibody and IKK kinase activity was then measured in vitro with IKK immune complexes incubated with the substrate GST-IκBα in the presence of [γ-^32P]-ATP.

SMILES | induction of TNFα, IL-1β and MIP-2 mRNA in the lungs [1] | TNFα-induced IκBα phosphorylation and degradation [2] | effect on the ability of vinpocetine on IKK kinase activity, IκB phosphorylation, IκB degradation or NF-κB-dependent transcriptional activity (IKK; co-treatment with vinpocetine) | TNFα-induced IKK kinase activity (IKK; rat aortic VSMCs treated with TNFα 10 min in the presence of compound)
C[C@@H]1C[C@H]2[C@@H]3CCC4=CC(=O)C=C[C@]4(C)[C@@]3(F)[C@@H](O)C[C@]2(C)[C@@]1(O)C(=O)CO [dexamethasone] | inhibited | – | – | –
COC(=O)C1=C(C)NC(C)=C(C(=O)OC)C1c1ccccc1[N+](=O)[O-] [nifedipine] | – | none of them exhibited any significant inhibitory effects | did not significantly affect | none of them exhibited any significant inhibitory effects

From US9682070B2, “Method and compositions for treatment or prevention of inflammatory conditions” (University of Rochester, priority 2007, dated 2017)
